These results are taken from patent publication US5854002A (Rhone Poulenc, Inc., priority 1996, dated 1998).

One experiment addresses Rat brain. The experiment can be described thus: [3H] muscimol binding, rat brain (previous assays of the inventors). An excerpt: Table 2 presents the Kd and Bmax values for [^3 H] muscimol binding. Data for housefly heads are from Lunt et al. (1985) Neurochem. Int. 7:751. Data for rat brain were obtained from previous assays performed by the present inventors using standard methods.
Table 3 presents IC50 values for the tested compounds which include known GABAA agonists and antagonists, GABAB agonists and antagonists, and a GABAC agonist. […]

The subject of another experiment is Housefly heads. As to conditions: half-maximal displacement of [3H] muscimol, from Lunt et al. (1985); read-out: IC50, Fly Heads; cited from earlier work. In general terms: In a radioligand displacement assay an active substance lowers the binding of a labelled ligand.

For `NCCCC(=O)O` [GABA, γ-aminobutyric acid], the IC50 (as a rule, the concentration at which inhibition is half-maximal) is 255 nM on Rat brain and 40 nM with Housefly heads.
